The results in this text go back to publication PMC4728560, “TCTP contains a BH3-like domain, which instead of inhibiting, activates Bcl-xL” (Scientific Reports, 2016).

Protein sequences, listed by entry. Tags and fused reporters are not part of them. Lines headed by an entry give the natural chain unless they say otherwise; changes in a name come on top.
UniProt Q07817: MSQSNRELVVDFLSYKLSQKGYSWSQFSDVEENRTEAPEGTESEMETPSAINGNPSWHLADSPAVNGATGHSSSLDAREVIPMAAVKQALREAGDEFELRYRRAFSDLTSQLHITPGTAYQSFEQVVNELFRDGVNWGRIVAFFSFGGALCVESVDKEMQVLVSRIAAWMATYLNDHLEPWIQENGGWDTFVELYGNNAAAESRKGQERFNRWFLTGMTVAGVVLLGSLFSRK

Results are given in words; binding and its absence hold for the method and conditions named. For some of these results: Binding can be weak; no strength is given.

In assay [1] the target is Bcl-xL-Y101K mutant (human) (UniProt Q07817). In words: ITC; peptide titrated into Bcl-xL in the cell; 30 °C, 50 mM ammonium bicarbonate pH 9; ITC200 calorimeter; both purified.
The target in assay [2] is Bcl-xL deletion variant (Bcl-xLΔ27–81ΔTM) (human) (UniProt Q07817). Put plainly: crystal structure; 300 μM Bcl-xL (Δ27–81ΔCT) + 1 mM TCTP11–31 in 50 mM ammonium bicarbonate pH 9.3; sitting drop, 20 °C; 2.1 Å; both purified.
The target of assay [3] is Bcl-xL, recombinant protein (human) (UniProt Q07817). In words: SEC + SEC-MALS + native MS; as a1, with the BH3 mimetic ABT-737; which method showed it is not told in the main text (Supplementary Figs 1–6); both purified. In general terms: In gel filtration, larger molecules generally elute earlier.
Assay [4] has the same target. Put plainly: SEC + SEC-MALS + native MS; proteins mixed at 100 μM, dialyzed against 10 mM CHES pH 9, 50 mM NaCl, 1 mM DTT or TCEP, heated overnight at 30 °C; S200 gel filtration, SEC-MALS, nanoESI-MS in 50 mM ammonium acetate pH 9.0; the text speaks only of 'biochemical and biophysical studies' (Supplementary Figs 1–6); both purified.
Assay [5] deals with Bcl-xL-Y101K mutant (human) (UniProt Q07817). In words: condition: proteins mixed at 100 μM (when not specified); SEC + SEC-MALS + native MS; proteins mixed at 100 μM, dialyzed against 10 mM CHES pH 9, 50 mM NaCl, 1 mM DTT or TCEP, heated overnight at 30 °C; S200 gel filtration, SEC-MALS, nanoESI-MS in 50 mM ammonium acetate pH 9.0; the text speaks only of 'biochemical and biophysical studies' (Supplementary Figs 1–6); both purified.

Assay [6] deals with Bcl-xL, recombinant protein (human) (UniProt Q07817). Described as above.
The target is the same in assay [7]. Put plainly: ITC; peptide titrated into Bcl-xL in the cell; 30 °C, 50 mM ammonium bicarbonate pH 9; ITC200 calorimeter; both purified. (In general: In ITC the heat of successive injections is recorded.)

DEMFSDIYKIREIADGLCLEV (peptide, UniProt P13693 11-31) [TCTP_(11–31) peptide]: the binding result in assay [1] is “no binding (tested: Bcl-xL-Y101K 0.072 mM, TCTP-BH3 0.955 mM)”; in assay [2], “binds”.

B1: Translationally Controlled Tumor Protein (TCTP), full-length recombinant protein (protein, UniProt P13693 1-172)
chain: MIIYRDLISHDEMFSDIYKIREIADGLCLEVEGKMVSRTEGNIDDSLIGGNASAEGPEGEGTESTVITGVDIVMNHHLQETSFTKEAYKKYIKDYMKSIKGKLEEQRPERVKPFMTGAAEQIKHILANFKNYQFFIGENMNPDGMVALLDYREDGVTPYMIFFKDGLEMEKC
Turning to B1, the figures for the binding result in assay [3], in assay [4] and in assay [5] were “no binding (only with ABT-737)”, “binds” and “no binding”, respectively.

B2: full-length TCTP-R21A N-terminal mutant (protein, UniProt P13693 1-172)
chain: MIIYRDLISHDEMFSDIYKIAEIADGLCLEVEGKMVSRTEGNIDDSLIGGNASAEGPEGEGTESTVITGVDIVMNHHLQETSFTKEAYKKYIKDYMKSIKGKLEEQRPERVKPFMTGAAEQIKHILANFKNYQFFIGENMNPDGMVALLDYREDGVTPYMIFFKDGLEMEKC
Consider B2, for which the binding entry in assay [6] was “no binding”. On to DEMFSDIYKIAEIADGLCLEV (peptide, UniProt P13693 11-31) [TCTP_(11–31)-R21A peptide], for which the binding entry in assay [7] is reported as “no binding (tested: Bcl-xL 0.065 mM, TCTP-BH3-R21A 1.26 mM)”.
